# Values from PubChem BioAssay AID1053208 (Peter MacCallum Cancer Centre, 2014)
# Aim: 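Find knock-downs that sensitise mouse osteosarcoma cells to doxorubicin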 (primary screen)
# Cells: mouse osteosarcoma cells, early-passage culture from an engineered mouse model of fibroblastic bone tumour
# Knock-down reagent: siRNA pool against mouse genes, 40 nM
# Time to read-out: about 120 h (48 h before drug, then 72 h with drug)
# Conditions: doxorubicin 100 nM for 72 h, roughly 30-40% inhibitory dose
# Detection: 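Luminescent ATP signal taken as viability with or without 100 nM doxorubicin for 72 h; mean of two wells set against non-targeting siRNA and turned into robust z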
# Reading the numbers: viability z-score with doxorubicin and doxorubicin viability vs non-targeting: higher = more viable cells under doxorubicin; viability z-score without drug: higher = more viable cells with knock-down alone; z-score of drug to no-drug ratio: higher = less drug sensitisation by knock-down
# Rule for the call: 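a pool counts as active when its viability z-score with doxorubicin is -2 or below and its z-score without drug lies between -2 and 2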
# Here is an unselected part of about 17,000 reagents. 788 of all reagents (4.7%) count as active. 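Calls rest on z-score classes alone; an extra cut-off of viability at most 70% of control was not applied to them.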 Unmarked entries are inactive. Reagents against one gene are numbered here. Reagent sequences are not shown.
gene symbol,pool no.,combined z-score class,viability z-score with doxorubicin,viability z-score without drug,z-score of drug to no-drug ratio,doxorubicin viability vs non-targeting
Actl7a (actin-like 7a),1,no change with or without drug,-0.11,0.84,-0.56,0.93
Casp9 (caspase 9),1,no change with or without drug,0.67,1.18,0,1
Isg20 (interferon-stimulated protein),1,no change with or without drug,1.35,0.17,1.35,1.06
"Npdc1 (neural proliferation, differentiation and control 1)",1,no change with or without drug,0.22,-0.34,0.56,0.96
Cpm (carboxypeptidase M),1,no change with or without drug,-0.67,0.17,-0.67,0.88
Ssna1 (SS nuclear autoantigen 1),1,no change with or without drug,-1.46,0.17,-1.57,0.81
Mif,1,no change with or without drug,1.01,0,1.12,1.03
"Ttll6 (tubulin tyrosine ligase-like family, member 6)",1,no change with or without drug,0.22,0.17,0.22,0.96
"Cfl2 (cofilin 2, muscle)",1,no change with or without drug,-1.35,-1.01,-0.67,0.82
"Tusc2 (tumor suppressor 2, mitochondrial calcium regulator)",1,no change with or without drug,-0.45,1.18,-1.12,0.9
Harbi1 (harbinger transposase derived 1),1,no change with or without drug,0.9,0.51,0.67,1.02
Acot7 (acyl-CoA thioesterase 7),1,high cell count without drug only,1.57,3.04,-0.22,1.08
Chfr (checkpoint with forkhead and ring finger domains),1,low cell count with doxorubicin only (active),-2.02,-1.52,-1.12,0.76
"Pdhx (pyruvate dehydrogenase complex, component X)",1,no change with or without drug,0.45,0,0.56,0.98
Cxcr1 (C-X-C motif chemokine receptor 1),1,no change with or without drug,0.9,-0.84,1.69,1.02
Dsc2 (desmocollin 2),1,no change with or without drug,0.56,0.51,0.34,0.99
"Sub1 (SUB1 homolog, transcriptional regulator)",1,no change with or without drug,0.45,0,0.56,0.98
"Chaf1a (chromatin assembly factor 1, subunit A)",1,no change with or without drug,-0.79,0.84,-1.24,0.87
Mageb1 (MAGE family member B1),1,no change with or without drug,-0.45,-1.52,0.79,0.9
AI315068,1,no change with or without drug,-0.22,-0.17,0,0.92
Irf4 (interferon regulatory factor 4),1,no change with or without drug,0.9,-0.17,1.24,1.02
Adgrf3 (adhesion G protein-coupled receptor F3),1,no change with or without drug,-0.22,-0.34,0.11,0.92
Dusp10 (dual specificity phosphatase 10),1,high cell count with doxorubicin only,2.02,0.67,1.69,1.12
Rrm2b (ribonucleotide reductase M2 B (TP53 inducible)),1,no change with or without drug,-0.45,0.17,-0.45,0.9
Pten (phosphatase and tensin homolog),1,no change with or without drug,0.56,0.51,0.34,0.99
Pten (phosphatase and tensin homolog),2,high cell count with doxorubicin only,2.02,0.51,1.8,1.12
Hprt1 (hypoxanthine phosphoribosyltransferase 1),1,no change with or without drug,-0.11,-0.84,0.56,0.93
Zfp606 (zinc finger protein 606),1,no change with or without drug,-0.22,1.52,-1.12,0.92
Tmem132d (transmembrane protein 132D),1,no change with or without drug,-0.67,-0.51,-0.22,0.88
Pex3 (peroxisomal biogenesis factor 3),1,no change with or without drug,0.34,0.17,0.34,0.97
Cytl1 (cytokine-like 1),1,no change with or without drug,-0.34,0.17,-0.34,0.91
Snurf (SNRPN upstream reading frame),1,no change with or without drug,-0.45,-0.17,-0.22,0.9
Npb (neuropeptide B),1,low cell count with doxorubicin only (active),-2.7,-1.18,-2.02,0.7
"Igdcc4 (immunoglobulin superfamily, DCC subclass, member 4)",1,no change with or without drug,-1.35,-0.17,-1.24,0.82
Prdx1 (peroxiredoxin 1),1,no change with or without drug,-0.22,0.34,-0.34,0.92
Slc7a4,1,no change with or without drug,1.12,1.18,0.45,1.04
Insyn1 (inhibitory synaptic factor 1),1,no change with or without drug,0.9,1.35,0.11,1.02
Snx16 (sorting nexin 16),1,no change with or without drug,-0.11,-1.35,1.01,0.93
"Mylk2 (myosin, light polypeptide kinase 2, skeletal muscle)",1,no change with or without drug,0.67,-0.17,0.9,1
S100a16 (S100 calcium binding protein A16),1,no change with or without drug,0.45,0.51,0.22,0.98
Ric8a (RIC8 guanine nucleotide exchange factor A),1,no change with or without drug,-0.22,0,-0.11,0.92
Nacc2,1,no change with or without drug,-0.9,-0.84,-0.22,0.86
Serinc5 (serine incorporator 5),1,no change with or without drug,-0.11,-1.35,1.01,0.93
Mospd1 (motile sperm domain containing 1),1,low cell count without drug only,-1.57,-2.19,0,0.8
Neurod2 (neurogenic differentiation 2),1,no change with or without drug,0.22,0.34,0.11,0.96
Gfra4,1,no change with or without drug,-1.8,-1.85,-0.56,0.78
Uck2 (uridine-cytidine kinase 2),1,low cell count without drug only,-1.46,-2.53,0.34,0.81
6330500D04RIK,1,no change with or without drug,-0.45,0.67,-0.79,0.9
Vegfa (vascular endothelial growth factor A),1,no change with or without drug,1.35,0.17,1.35,1.06
H4c9 (H4 clustered histone 9),1,no change with or without drug,1.12,1.69,0.11,1.04

Part of the list above, set out differently.
| gene symbol | pool no. | combined z-score class | viability z-score with doxorubicin | viability z-score without drug | z-score of drug to no-drug ratio | doxorubicin viability vs non-targeting |
| --- | --- | --- | --- | --- | --- | --- |
| Pten (phosphatase and tensin homolog) | 2 | high cell count with doxorubicin only | 2.02 | 0.51 | 1.8 | 1.12 |
| Hprt1 (hypoxanthine phosphoribosyltransferase 1) | 1 | no change with or without drug | -0.11 | -0.84 | 0.56 | 0.93 |
| Zfp606 (zinc finger protein 606) | 1 | no change with or without drug | -0.22 | 1.52 | -1.12 | 0.92 |
| Tmem132d (transmembrane protein 132D) | 1 | no change with or without drug | -0.67 | -0.51 | -0.22 | 0.88 |
| Pex3 (peroxisomal biogenesis factor 3) | 1 | no change with or without drug | 0.34 | 0.17 | 0.34 | 0.97 |
| Cytl1 (cytokine-like 1) | 1 | no change with or without drug | -0.34 | 0.17 | -0.34 | 0.91 |
| Snurf (SNRPN upstream reading frame) | 1 | no change with or without drug | -0.45 | -0.17 | -0.22 | 0.9 |
| Npb (neuropeptide B) | 1 | low cell count with doxorubicin only (active) | -2.7 | -1.18 | -2.02 | 0.7 |
